This is one part of the list.
Target: OsWRKY34 (Oryza sativa, UniProt Q0JBA9 1-250)
Test: protein-binding microarray (RPBM); PBS, 2% BSA, 51.3 ng/ul salmon testes DNA, 50 uM zinc acetate, 200 nM TF, 25 C, 1 h; high values mean tight binding
Details: protein: recombinant; tags: N-terminal polyhistidine and DsRed monomer fusion (pET32a); label: CyDye5-dUTP incorporated in the synthesized complementary strand; 3' TTTTT single-stranded linker to array surface; dsDNA, one strand shown
Procedure, shortened: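 A custom Agilent array was converted to double-stranded form by primer extension with Cy5-dUTP and blocked with 2% BSA. Protein at 200 nM in PBS with 2% BSA, salmon testes DNA and 50 µM zinc acetate was applied for 1 h at 25 °C, followed by washing. The proteins were polyhistidine–DsRed N-terminal fusions of transcription factors, expressed in E. coli BL21-CodonPlus and Ni–NTA-purified. The binding signal is per-feature fluorescence intensity (arbitrary units) from an Axon 4000B scanner.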

Sequences of proteins named here, by UniProt entry; tags and fusion partners are left off.
UniProt Q0JBA9, entry or part of it: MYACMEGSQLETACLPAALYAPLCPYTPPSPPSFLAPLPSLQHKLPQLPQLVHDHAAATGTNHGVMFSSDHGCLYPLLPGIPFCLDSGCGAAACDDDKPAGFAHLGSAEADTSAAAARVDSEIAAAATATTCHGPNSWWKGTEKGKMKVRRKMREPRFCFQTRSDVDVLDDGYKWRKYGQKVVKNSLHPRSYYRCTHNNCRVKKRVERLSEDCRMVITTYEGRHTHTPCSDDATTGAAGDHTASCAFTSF

Q: Which binding signal does the source give for “GCAAGTTCAAAATCAACTTCTACATTGTTTTTTTCGTTGCCGGAGTCACCTAGTGCAG” here?
A: 8970 fluorescence intensity (a.u.)

Q: “AGGCTTTTGCTCGTCTTCCGAATTTCCGATCCACCTCGCGCGGAGTCACCTAGTGCAG” was tested. Which binding signal did it give?
A: 8770 fluorescence intensity (a.u.)

Q: Which binding signal does the source give for “ACTACCCCTGATCTGATCGCTAATTCGCTATGGTACCTCACGGAGTCACCTAGTGCAG” here?
A: 8630 fluorescence intensity (a.u.)

Q: With “TGAAGAGGTGAGTGTTTTAGGGTTTTGGTTGGGGTTTTGACGGAGTCACCTAGTGCAG” as the sequence, how does the binding signal read?
A: 14600 fluorescence intensity (a.u.)

Q: With “CAGCTGCACAGGCGCAGGTGGGGATGGCAGGGGAGGGCAGCGGAGTCACCTAGTGCAG” as the sequence, how does the binding signal read?
A: 11300 fluorescence intensity (a.u.)

Q: “ATGGTGGCCGGTCTTTTTTCCTCTTCGCTCGATGCCAAAACGGAGTCACCTAGTGCAG” was tested. Which binding signal did it give?
A: 8270 fluorescence intensity (a.u.)

Q: Which binding signal does the source give for “AGGGATGGTTGGACTTATTTCTTTCGCGTTTTCCTTGGGTCGGAGTCACCTAGTGCAG” here?
A: 10900 fluorescence intensity (a.u.)

Q: “TGCCGCCGCCGCCACCTCCGCCGCTGTCCGCCGCCGGCGCCGGAGTCACCTAGTGCAG” was tested. Which binding signal did it give?
A: 11200 fluorescence intensity (a.u.)

Q: “CACAGAGCTCTCGTTGACTTCATCCGTTCCCCTGCTCCTCCGGAGTCACCTAGTGCAG” was tested. Which binding signal did it give?
A: 8420 fluorescence intensity (a.u.)

Q: Which binding signal does the source give for “TGTCTATAAATTGCGTCCTCGTCTTCATCTCCATCCAAACCGGAGTCACCTAGTGCAG” here?
A: 10300 fluorescence intensity (a.u.)

Q: With “CTCCCTCTGTTTCTAAATGTTTGACGTCGTTGATTTTTTTCGGAGTCACCTAGTGCAG” as the sequence, how does the binding signal read?
A: 8430 fluorescence intensity (a.u.)

Q: How did the binding signal turn out when “TTCCTTTTTCTATTTTTGGAATTTATTTTAATTTTTATTTCGGAGTCACCTAGTGCAG” was run?
A: 8910 fluorescence intensity (a.u.)

Q: How did the binding signal turn out when “TTCATTCCCGCGTATTCTCCTCATTCATCCTAGCTCTCGCCGGAGTCACCTAGTGCAG” was run?
A: 15000 fluorescence intensity (a.u.)

Q: “TTGTGGGACGTGGGTCGGGGATGGATGGATAGGCAAGGCGCGGAGTCACCTAGTGCAG” was tested. Which binding signal did it give?
A: 9730 fluorescence intensity (a.u.)

Q: How did the binding signal turn out when “CTAGGGGCATTTTTTAAAATATTTTGTATTTAGTGAAGTACGGAGTCACCTAGTGCAG” was run?
A: 10100 fluorescence intensity (a.u.)

Q: How did the binding signal turn out when “CTGTTGTGTTGTGTTGTAATATGATTATGTGGGTGCTTATCGGAGTCACCTAGTGCAG” was run?
A: 8390 fluorescence intensity (a.u.)

Q: With “CCCACCCACATCTGCCTGGCCCCACCTGCCGCCGTGCGGTCGGAGTCACCTAGTGCAG” as the sequence, how does the binding signal read?
A: 8540 fluorescence intensity (a.u.)

Q: With “TCCAACGCTAGCTATATATCTAGCTATCTGTCTCCACATCCGGAGTCACCTAGTGCAG” as the sequence, how does the binding signal read?
A: 9600 fluorescence intensity (a.u.)

Q: “CGAGATTAGTTTAGTTGCTATCTTGTTTGTTCTCCCTTTGCGGAGTCACCTAGTGCAG” was tested. Which binding signal did it give?
A: 8170 fluorescence intensity (a.u.)

Q: “AGTTTCCACTCTTAAGGCAGTGTTCCGCGTGCACGTTTTTCGGAGTCACCTAGTGCAG” was tested. Which binding signal did it give?
A: 8980 fluorescence intensity (a.u.)

Q: For “AATGTCAGGCTACTTCTGTCTTACACCAATCTCATCCCTACGGAGTCACCTAGTGCAG”, which binding signal is on record?
A: 9950 fluorescence intensity (a.u.)

Q: How did the binding signal turn out when “GTAATTGCCATTGCAACATCCTGGTCTTCATCCAATATTCCGGAGTCACCTAGTGCAG” was run?
A: 8860 fluorescence intensity (a.u.)

Q: “ACATCAGCAGGCACGCTCCACACATCTCGGTCCACTGAAGCGGAGTCACCTAGTGCAG” was tested. Which binding signal did it give?
A: 8100 fluorescence intensity (a.u.)

Q: Which binding signal does the source give for “GACTGATGAGCTTTAGGTGGGTCTAACTATTTTTTATTTACGGAGTCACCTAGTGCAG” here?
A: 9240 fluorescence intensity (a.u.)

Q: For “CCTCATCCGCGCCGCGCTCTCGCCCGCAATCGAGGCCGCCCGGAGTCACCTAGTGCAG”, which binding signal is on record?
A: 8100 fluorescence intensity (a.u.)

Q: How did the binding signal turn out when “TGGCTCTGCCACTACCTACTCCTTGACAAGTTTGTCCTCACGGAGTCACCTAGTGCAG” was run?
A: 8090 fluorescence intensity (a.u.)

Q: How did the binding signal turn out when “TGTTAAAGTTAATTAAGTTCATCCACAGTTTTTTTGACTTCGGAGTCACCTAGTGCAG” was run?
A: 8220 fluorescence intensity (a.u.)

Q: Which binding signal does the source give for “CCAAGAGCCGCCACTTCCGCTTCCGCCTCTGCCTCGTCCACGGAGTCACCTAGTGCAG” here?
A: 15000 fluorescence intensity (a.u.)

Q: With “TTTGTTTGTGTTGAAAATATTTTTATGTTATATATATATACGGAGTCACCTAGTGCAG” as the sequence, how does the binding signal read?
A: 8490 fluorescence intensity (a.u.)

Q: For “ACACTTTCGCCTTTCTGACTTACACGCGCGTATATATACACGGAGTCACCTAGTGCAG”, which binding signal is on record?
A: 8080 fluorescence intensity (a.u.)

Q: With “TTCTCCCTTGAACATAGTCCGTTGCTGAACCTCACGTTGACGGAGTCACCTAGTGCAG” as the sequence, how does the binding signal read?
A: 8120 fluorescence intensity (a.u.)

Q: “GATGGACTGATGGTGAATTGGTGATCGGGTTGCTTGCTGGCGGAGTCACCTAGTGCAG” was tested. Which binding signal did it give?
A: 8860 fluorescence intensity (a.u.)

Q: With “TGGGGTTGGGTGGTGGTGGTGCGCACACAGCTAGCGAGGGCGGAGTCACCTAGTGCAG” as the sequence, how does the binding signal read?
A: 8760 fluorescence intensity (a.u.)

Q: Which binding signal does the source give for “TCTATATTCTACTCAATGCTTGGTTCTAAATTGGCCTCAACGGAGTCACCTAGTGCAG” here?
A: 8320 fluorescence intensity (a.u.)

Q: How did the binding signal turn out when “ATATAAGGGATTTTGAGTTTTTGTTTGCAACGTTTGACCGCGGAGTCACCTAGTGCAG” was run?
A: 11200 fluorescence intensity (a.u.)

Q: Which binding signal does the source give for “CCTCCTTGAGTTTAGTCACGATCCCCACCGTTGACCGAAGCGGAGTCACCTAGTGCAG” here?
A: 15600 fluorescence intensity (a.u.)

Q: With “TGATTTTCTTTCTTTTACAATCAACTGATTTTCTTTCTTTCGGAGTCACCTAGTGCAG” as the sequence, how does the binding signal read?
A: 11200 fluorescence intensity (a.u.)

Q: For “AATTAGTTCCTGGACTTTGTGTATTACTAGTACTACTCCACGGAGTCACCTAGTGCAG”, which binding signal is on record?
A: 8570 fluorescence intensity (a.u.)

Q: Which binding signal does the source give for “TGAATTGGTTAGTCATATTTTCATTTGGCCAACCTCTCCACGGAGTCACCTAGTGCAG” here?
A: 8680 fluorescence intensity (a.u.)

Q: “TATATATATATATATATATATATATATATATATAAGCGTCCGGAGTCACCTAGTGCAG” was tested. Which binding signal did it give?
A: 11300 fluorescence intensity (a.u.)

Q: “GCCTTGACCTCCTCGTACGCCGCGCTCCGCTTCATCCTGCCGGAGTCACCTAGTGCAG” was tested. Which binding signal did it give?
A: 8240 fluorescence intensity (a.u.)

Q: “CGAATTCTCCTCTCAATTCAACCTGCCTCGATCTCGCTCTCGGAGTCACCTAGTGCAG” was tested. Which binding signal did it give?
A: 9830 fluorescence intensity (a.u.)

Q: For “TTAGGGAGCGTTTTTTCTTGCTTAATTCGCAGTTAATCTTCGGAGTCACCTAGTGCAG”, which binding signal is on record?
A: 9870 fluorescence intensity (a.u.)

Q: Which binding signal does the source give for “TGGTTCATGGCCACACCACACTTTTGACTGCCACAGTGTGCGGAGTCACCTAGTGCAG” here?
A: 8420 fluorescence intensity (a.u.)

Q: “TTTGTCAGTCTGTCACTTACAAACTGCGTTTGAATGTTTCCGGAGTCACCTAGTGCAG” was tested. Which binding signal did it give?
A: 8960 fluorescence intensity (a.u.)

Q: For “GACTTTAGTCAAAGTCATGTTGTTTCAAGTTTGACTAATTCGGAGTCACCTAGTGCAG”, which binding signal is on record?
A: 18800 fluorescence intensity (a.u.)

Q: With “ACGCCGCACGCTGCTCTGCAAACGCCAACTTTCCTCTCTCCGGAGTCACCTAGTGCAG” as the sequence, how does the binding signal read?
A: 8280 fluorescence intensity (a.u.)

Q: With “ACCACCAACCTGTCTGTCTCGTACTCTCGCTTCCGCTTCGCGGAGTCACCTAGTGCAG” as the sequence, how does the binding signal read?
A: 13200 fluorescence intensity (a.u.)

Q: For “TTGACAGCATCACCATATAATATTTTTGCATTAATAACTTCGGAGTCACCTAGTGCAG”, which binding signal is on record?
A: 10200 fluorescence intensity (a.u.)

Q: “GGGTTTTTATATATAGTTGGCATTTGCAAATGTTGAAATACGGAGTCACCTAGTGCAG” was tested. Which binding signal did it give?
A: 8670 fluorescence intensity (a.u.)

Q: “CAGCACAACCTTGTCGTCCTCGATCGCATCGCTCGCATCACGGAGTCACCTAGTGCAG” was tested. Which binding signal did it give?
A: 8950 fluorescence intensity (a.u.)

Q: How did the binding signal turn out when “TCACTTTTCATGTACAAAACATGTTGATATTGTGGTTGGTCGGAGTCACCTAGTGCAG” was run?
A: 8200 fluorescence intensity (a.u.)

Q: How did the binding signal turn out when “ACCTTTGACAGCTCGAGCTCATGGCGGCTGCAGCCCTGCACGGAGTCACCTAGTGCAG” was run?
A: 8030 fluorescence intensity (a.u.)

Q: For “TCTGATACTCCTTTTCACCGTGCCTTTTCAACACAACTTCCGGAGTCACCTAGTGCAG”, which binding signal is on record?
A: 11500 fluorescence intensity (a.u.)

From paper PMC7819943, “Rice protein-binding microarrays: a tool to detect cis-acting elements near promoter regions in rice”
